Source: paper PMC10620963, “Two-carbon tethered artemisinin–isatin hybrids: design, synthesis, anti-breast cancer potential, and in silico study” (Frontiers in Molecular Biosciences, 2023)

What follows are molecules tested on MDA-MB-231/ADR (Adriamycin-resistant MDA-MB-231 cell line) (assay: MTT antiproliferative assay, MDA-MB-231/ADR).
Assay type: cell-based, human
Experimental: The antiproliferative activity and cytotoxicity of ART–isatin hybrids 4a–k against MCF-7 (CL-0149, purchased from Procell), MDA-MB-231 (CL-0150A, purchased from Procell), and MDA-MB-231/ADR (AC337895, purchased from CASMART) breast cancer cell lines, as well as MCF-10A (CL-0525, purchased from Procell), were assessed by the 3-(4,5-dimethylthiazol-2-yl)-2,5-diphenyltetrazolium bromide (MTT) assay. ART, DHA, and Adriamycin (ADR) were used as positive controls. The selectivity index (SI: IC50(MCF-10A)/IC50(MCF-7)) and resistance index (RI: IC50(MDA-MB-231/ADR)/IC50(MDA-MB-231)) are presented in Table 3.
MCF-7, MDA-MB-231 and MDA-MB-231/ADR breast cancer cells (2×10^3) were plated in each well of a 96-well plate and were allowed to adhere and spread for 24 h. Cells were treated with a range of different concentrations of ART-isatin hybrids 4a-k (1, 5, 10, 20, 50, 100 µM) and reference drugs artemisinin, dihydroartemisinin, and adriamycin (1, 5, 10, 20, 50, 100 µM) and were cultured for 24 h at 37 °C. 3-(4,5-dimethyl-2-thiazolyl)-2,5-diphenyltetrazolium bromide (MTT) solution (10 µL) was added to each well, and the cultures were incubated for an additional 4 h. A further 100 µL of […] was added and incubation continued overnight. The absorbance was read at 540 nm in EnSpire, multimode reader and IC50 concentration was calculated and indicated as means SD of three in-dependent experiments. The percentage relative cell viability was determined according to the following formula: Percentage cell viability = A at 570 nm of treated samples/A at 570 nm of untreated samples × 100.
The statistical analysis was performed using Excel © and IC50 values were estimated using GraphpadPrism5 software (Hearne Scientific Software). The experiments were performed in duplicate and the statistical significance was calculated using the student’s t-test. A p-value of less than 0.05 was used to estimate the significance of the observations. A Z-factor was calculated for each 96-well plate and assays having Z-factor above 0.05 were included in the statistical analysis.
In the case of `C[C@@H]1CC[C@H]2[C@@H](C)C(=O)O[C@@H]3O[C@@]4(C)CC[C@@H]1[C@]32OO4` [ART, artemisinin], the “RI, resistance index, IC50(MDA-MB-231/ADR)/IC50(MDA-MB-231)” value is reported as over 1.38. With `C[C@H]1[C@@H](O)O[C@@H]2O[C@@]3(C)CC[C@H]4[C@H](C)CC[C@@H]1[C@@]24OO3` [DHA, dihydroartemisinin, reference compound] the “RI, resistance index, IC50(MDA-MB-231/ADR)/IC50(MDA-MB-231)” value was 1.18. `C[C@@H]1CC[C@H]2[C@@H](C)C(OCCN3C(=O)C(=O)c4ccccc43)O[C@@H]3O[C@@]4(C)CC[C@@H]1[C@]32OO4` (stereo partly drawn) [Hybrid 4a, 1-(2-(((3R,5aS,6R,8aS,9R,12R,12aR)-3,6,9-trimethyldecahydro-12H-3,12-epoxy[1,2]dioxepino[4,3-i]isochromen-10-yl)oxy)ethyl)indoline-2,3-dione] was tested, and the “RI, resistance index, IC50(MDA-MB-231/ADR)/IC50(MDA-MB-231)” value was 0.65. For `C[C@@H]1CC[C@H]2[C@@H](C)C(OCCN3C(=O)C(=O)c4cc(F)ccc43)O[C@@H]3O[C@@]4(C)CC[C@@H]1[C@]32OO4` (stereo partly drawn) [Hybrid 4b, 5-fluoro-1-(2-(((3R,5aS,6R,8aS,9R,12R,12aR)-3,6,9-trimethyldecahydro-12H-3,12-epoxy[1,2]dioxepino[4,3-i]isochromen-10-yl)oxy)ethyl)indoline-2,3-dione], the “RI, resistance index, IC50(MDA-MB-231/ADR)/IC50(MDA-MB-231)” value was 1.15. In the case of `COc1ccc2c(c1)C(=O)C(=O)N2CCOC1O[C@@H]2O[C@@]3(C)CC[C@H]4[C@H](C)CC[C@@H]([C@H]1C)[C@@]24OO3` (stereo partly drawn) [Hybrid 4c, 5-methoxy-1-(2-(((3R,5aS,6R,8aS,9R,12R,12aR)-3,6,9-trimethyldecahydro-12H-3,12-epoxy[1,2]dioxepino[4,3-i]isochromen-10-yl)oxy)ethyl)indoline-2,3-dione], the “RI, resistance index, IC50(MDA-MB-231/ADR)/IC50(MDA-MB-231)” value is reported as 0.93. With `CON=C1C(=O)N(CCOC2O[C@@H]3O[C@@]4(C)CC[C@H]5[C@H](C)CC[C@@H]([C@H]2C)[C@@]35OO4)c2ccccc21` (stereo partly drawn) [Hybrid 4d, 3-(methoxyimino)-1-(2-(((3R,5aS,6R,8aS,9R,12R,12aR)-3,6,9-trimethyldecahydro-12H-3,12-epoxy[1,2]dioxepino[4,3-i]isochromen-10-yl)oxy)ethyl)indolin-2-one] the “RI, resistance index, IC50(MDA-MB-231/ADR)/IC50(MDA-MB-231)” value was 1.22. With `CO/N=C1/C(=O)N(CCOC2O[C@@H]3O[C@@]4(C)CC[C@H]5[C@H](C)CC[C@@H]([C@H]2C)[C@@]35OO4)c2ccc(F)cc21` (stereo partly drawn) [Hybrid 4e, (E)-5-fluoro-3-(methoxyimino)-1-(2-(((3R,5aS,6R,8aS,9R,12R,12aR)-3,6,9-trimethyldecahydro-12H-3,12-epoxy[1,2]dioxepino[4,3-i]isochromen-10-yl)oxy)ethyl)indolin-2-one] the “RI, resistance index, IC50(MDA-MB-231/ADR)/IC50(MDA-MB-231)” value was 1.30. For `CON=C1C(=O)N(CCOC2O[C@@H]3O[C@@]4(C)CC[C@H]5[C@H](C)CC[C@@H]([C@H]2C)[C@@]35OO4)c2ccc(OC)cc21` (stereo partly drawn) [Hybrid 4f, 5-methoxy-3-(methoxyimino)-1-(2-(((3R,5aS,6R,8aS,9R,12R,12aR)-3,6,9-trimethyldecahydro-12H-3,12-epoxy[1,2]dioxepino[4,3-i]isochromen-10-yl)oxy)ethyl)indolin-2-one], the “RI, resistance index, IC50(MDA-MB-231/ADR)/IC50(MDA-MB-231)” value was 1.66. With `CCON=C1C(=O)N(CCOC2O[C@@H]3O[C@@]4(C)CC[C@H]5[C@H](C)CC[C@@H]([C@H]2C)[C@@]35OO4)c2ccccc21` (stereo partly drawn) [Hybrid 4g, 3-(ethoxyimino)-1-(2-(((3R,5aS,6R,8aS,9R,12R,12aR)-3,6,9-trimethyldecahydro-12H-3,12-epoxy[1,2]dioxepino[4,3-i]isochromen-10-yl)oxy)ethyl)indolin-2-one] the “RI, resistance index, IC50(MDA-MB-231/ADR)/IC50(MDA-MB-231)” value was 0.75. `CCON=C1C(=O)N(CCOC2O[C@@H]3O[C@@]4(C)CC[C@H]5[C@H](C)CC[C@@H]([C@H]2C)[C@@]35OO4)c2ccc(F)cc21` (stereo partly drawn) [Hybrid 4h, 3-(ethoxyimino)-5-fluoro-1-(2-(((3R,5aS,6R,8aS,9R,12R,12aR)-3,6,9-trimethyldecahydro-12H-3,12-epoxy[1,2]dioxepino[4,3-i]isochromen-10-yl)oxy)ethyl)indolin-2-one] was tested, and the “RI, resistance index, IC50(MDA-MB-231/ADR)/IC50(MDA-MB-231)” value was 1.28. For `CCON=C1C(=O)N(CCOC2O[C@@H]3O[C@@]4(C)CC[C@H]5[C@H](C)CC[C@@H]([C@H]2C)[C@@]35OO4)c2ccc(OC)cc21` (stereo partly drawn) [Hybrid 4i, 3-(ethoxyimino)-5-methoxy-1-(2-(((3R,5aS,6R,8aS,9R,12R,12aR)-3,6,9-trimethyldecahydro-12H-3,12-epoxy[1,2]dioxepino[4,3-i]isochromen-10-yl)oxy)ethyl)indolin-2-one], the “RI, resistance index, IC50(MDA-MB-231/ADR)/IC50(MDA-MB-231)” value was 1.04.
